Results deposited as PubChem BioAssay AID743454 (Peter MacCallum Cancer Centre, 2014).
Screen: 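Knock-downs lowering viability or raising caspase 3/7 activity in vorinostat-treated resistant cells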 (primary screen). System: human HCT116-VR colon cancer cells, selected for vorinostat resistance. Reagents: siRNA pool against human genes, 40 nM siRNA pool. Duration: vorinostat for 24 h, read-out about 72 h after transfection. Treatment: vorinostat at 2.5 µM final. Detection: 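Two measures, CellTiter-Fluor viability and luminescent caspase 3/7 activity, each as fold change against same-plate mock wells, mean of duplicates, then screen-wide robust z-score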. Direction: viability robust z-score: higher = more viable cells than screen typical; caspase robust z-score: higher = more caspase 3/7 activity than screen typical. Active means: 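a knock-down is a hit when classed RV1 or RV2 for lowered viability, or CA1 or CA2 for caspase activation; those lethal without drug were dropped; hits were retested singly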.
The deposit covers about 18,000 reagents; below is a random part of them. 450 of all reagents (2.5%) count as active. 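Single biological run; no consistent viability z cut-off exists, so the class columns, not z-scores, define the calls.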 Unmarked entries are inactive.

no.	Gene	viability hit class	caspase hit class	viability robust z-score	caspase robust z-score
1	NOXRED1 (GeneID 122945)	no change	no change	0.34	-0.37
2	SCNN1A (GeneID 6337)	no change	no change	-0.6	-0.14
3	PDK2 (GeneID 5164)	no change	no change	0.02	0.6
4	THOC2 (GeneID 57187)	no change	no change	-1.31	4.17
5	PDXP (GeneID 57026)	no change	no change	0.22	1.28
6	ROPN1B (GeneID 152015)	no change	no change	0.04	-0.7
7	PDIA4 (GeneID 9601)	no change	no change	0.7	-0.69
8	PGAP6 (GeneID 58986)	no change	no change	1	-0.22
9	ZCCHC14 (GeneID 23174)	no change	no change	0.6	-0.84
10	PCIF1 (GeneID 63935)	no change	no change	-0.24	-0.22
11	DDX28 (GeneID 55794)	no change	no change	1.19	-0.18
12	SOCS3 (GeneID 9021)	no change	no change	0.28	-0.28
13	GTF2H1 (GeneID 2965)	no change	no change	-0.65	-0.38
14	DHRS2 (GeneID 10202)	no change	no change	1.72	-0.13
15	TCF12 (GeneID 6938)	no change	no change	-1	1.27
16	PAN2 (GeneID 9924)	no change	no change	-0.66	2.1
17	HTR1A (GeneID 3350)	no change	no change	-0.97	2.23
18	TFDP2 (GeneID 7029)	no change	no change	2.03	-0.65
19	ATAT1 (GeneID 79969)	no change	no change	-0.28	-0.82
20	KLC3 (GeneID 147700)	no change	no change	0.4	2.77
21	KRTAP1-5 (GeneID 83895)	no change	no change	-2.33	1.73
22	GDA (GeneID 9615)	no change	no change	0.09	-0.38
23	PTP4A2 (GeneID 8073)	no change	no change	0.02	1.29
24	PABPN1 (GeneID 8106)	no change	no change	-0.43	3.6
25	SSNA1 (GeneID 8636)	no change	no change	-0.58	-0.66
26	GLTPD2 (GeneID 388323)	no change	no change	1.29	-0.57
27	PSMD5 (GeneID 5711)	no change	no change	0.64	-0.8
28	NASP (GeneID 4678)	no change	no change	-0.66	-1.02
29	NEURL2 (GeneID 140825)	no change	no change	0.5	-0.3
30	OSTN (GeneID 344901)	no change	no change	-0.37	1.57
31	ATE1 (GeneID 11101)	no change	no change	0.04	1.34
32	PBK (GeneID 55872)	no change	no change	1.42	-0.7
33	SLC35B3 (GeneID 51000)	no change	no change	-1.53	0.26
34	TNFSF4 (GeneID 7292)	no change	no change	-1.46	1.07
35	PSMB7 (GeneID 5695)	no change	no change	-4.05	2.35
36	APPL1 (GeneID 26060)	no change	no change	0.24	-0.3
37	ENTR1 (GeneID 10807)	no change	no change	-0.35	-1.18
38	TOP1MT (GeneID 116447)	no change	no change	0.64	-1.19
39	EBF3 (GeneID 253738)	no change	no change	0.86	-0.54

A run of entries of the results above, for reference:
no.	Gene	viability hit class	caspase hit class	viability robust z-score	caspase robust z-score
24	PABPN1 (GeneID 8106)	no change	no change	-0.43	3.6
25	SSNA1 (GeneID 8636)	no change	no change	-0.58	-0.66
26	GLTPD2 (GeneID 388323)	no change	no change	1.29	-0.57
